According to article doi:10.1101/2022.12.19.520972 (bioRxiv, 2022):
Results are given in words; binding and its absence hold for the method and conditions named.

Sequences of proteins named here, by UniProt entry; tags and fusion partners are left off. Residues count along the entry.
PEX13 SH3-CTR (261-403) (Q92968, residues 261-403): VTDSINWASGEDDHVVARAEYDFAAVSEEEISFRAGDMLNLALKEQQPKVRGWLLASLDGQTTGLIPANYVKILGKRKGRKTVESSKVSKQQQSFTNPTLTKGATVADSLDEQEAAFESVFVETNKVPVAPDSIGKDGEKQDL
PEX13 SH3 (261-346) (Q92968, residues 261-346): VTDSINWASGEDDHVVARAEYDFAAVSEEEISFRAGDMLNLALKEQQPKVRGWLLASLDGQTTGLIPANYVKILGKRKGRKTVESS
UniProt O75381, residues 1-113: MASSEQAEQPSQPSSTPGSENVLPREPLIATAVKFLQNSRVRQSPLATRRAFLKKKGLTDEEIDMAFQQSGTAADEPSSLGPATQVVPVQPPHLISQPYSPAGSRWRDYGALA

How the values were obtained:
[1] = molecular target: PEX13 SH3-CTR (261-403) (human) (UniProt Q92968); assay: SEC-SLS
[2] = molecular target: PEX13 SH3 (261-346) (human) (UniProt Q92968); assay: NMR titration

Substance | binding [1] | binding [2]
PEX13 SH3-CTR (261-403) (from UniProt Q92968 261-403) (domain or fragment) | no binding (tested: 2 mg/ml) | –
PEX14 NTD_(long) (1-113) (from UniProt O75381 1-113) (domain or fragment) | – | no binding (tested: 4x excess)
